Data source: PubChem BioAssay AID1671195 (Yale University, 2021)
This is an unselected part of about 22,000 deposited reagents. About 1,510 of them (6.9%) were called active. 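Active includes knockdowns raising or lowering LDL uptake; positive z-scores mean more uptake, negative mean less.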 A number with no mark means an inactive call. No sequences are given here.

Screen: 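Knockdowns that increase or decrease uptake of fluorescent LDL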 (primary screen)
System: human Huh7 hepatoma cells
Reagent: siRNA pool against human genes, 18 nM
Timing: about 2 to 2.5 days of knockdown, then 8 h LDL uptake
Challenge: DiI-labelled LDL at 30 µg/ml for 8 h, in lipoprotein-deficient serum medium
Detection: 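Fluorescent LDL signal imaged in cells, scaled to the plate median, robust z-score for each replicate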
Scale: robust z-score: higher = more LDL uptake after knockdown
Hit rule: 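Active when two or more replicates show a robust z-score above 2 or below -2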

Knock-down of GLOD5 (glyoxalase domain containing 5) resulted in: robust z-score, replicate 1 = -0.569; robust z-score, replicate 2 = 0.726; robust z-score, replicate 3 = 0.891. Depletion of ADHFE1 (alcohol dehydrogenase iron containing 1) resulted in: robust z-score, replicate 1 = -2 (active); robust z-score, replicate 2 = -2.07; robust z-score, replicate 3 = -2.33. SOX14 (SRY-box transcription factor 14) showed robust z-score, replicate 1 = 1.63; robust z-score, replicate 2 = 1.32; robust z-score, replicate 3 = 1.51. SMC5 (structural maintenance of chromosomes 5) gave robust z-score, replicate 1 = 0.344; robust z-score, replicate 2 = 0.316; robust z-score, replicate 3 = 0.873. With knock-down of RNF125 (ring finger protein 125) the results were robust z-score, replicate 1 = -1.26; robust z-score, replicate 2 = -1.33; robust z-score, replicate 3 = -1.49. With knock-down of RET (ret proto-oncogene) the results were robust z-score, replicate 1 = -0.473; robust z-score, replicate 2 = -0.0049; robust z-score, replicate 3 = -0.411.

Against EIF4G2 (eukaryotic translation initiation factor 4 gamma 2), the values are robust z-score, replicate 1 = 0.0256; robust z-score, replicate 2 = -0.437; robust z-score, replicate 3 = 0.023.

Sorted by “robust z-score, replicate 3” (high to low): some entries from above
SOX14 (SRY-box transcription factor 14) | robust z-score, replicate 1 = 1.63; robust z-score, replicate 2 = 1.32; robust z-score, replicate 3 = 1.51
ADHFE1 (alcohol dehydrogenase iron containing 1) | robust z-score, replicate 1 = -2 (active); robust z-score, replicate 2 = -2.07; robust z-score, replicate 3 = -2.33

Further reagents follow:
Silencing of MSANTD1 (Myb/SANT DNA binding domain containing 1) gave: robust z-score, replicate 1 = -0.708; robust z-score, replicate 2 = -0.828; robust z-score, replicate 3 = -0.359. Depletion of RNF182 (ring finger protein 182) gave: robust z-score, replicate 1 = 1.2; robust z-score, replicate 2 = 1.02; robust z-score, replicate 3 = 1.64. Depletion of ZDHHC1 (zDHHC palmitoyltransferase 1) resulted in: robust z-score, replicate 1 = -0.523; robust z-score, replicate 2 = -0.201; robust z-score, replicate 3 = -1.46. Depletion of CA11 (carbonic anhydrase 11 (inactive)) resulted in: robust z-score, replicate 1 = -1.42; robust z-score, replicate 2 = -1.7; robust z-score, replicate 3 = -1.84. Against USP45 (ubiquitin specific peptidase 45) the deposit lists robust z-score, replicate 1 = -0.185; robust z-score, replicate 2 = 0.567; robust z-score, replicate 3 = -0.202.
